PubChem BioAssay AID1259282 – Sanger Institute | 2017

Test: 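siRNA screen across the kinome seeking drug combinations lethal to colorectal cancer cells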 (primary screen)
Cell system: DIFI human colorectal cancer cell line
Knock-down reagent: siRNA pool against human genes
Conditions: anchor drug at a mild dose (BYL719 1 µM, cetuximab 5 µg/ml, trametinib 10 nM) or DMSO vehicle; exposure time not given
Measurement: 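Viability relative to non-targeting pool wells, replicate mean, in DMSO or low-dose BYL719, cetuximab or trametinib; robust z-score without drug; synergy score per drug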
Reading the numbers: robust z-score, knock-down alone: higher = more viable cells than typical knock-down; viability, knock-down alone: higher = more viable cells; synergy score with trametinib and synergy score with cetuximab and synergy score with BYL719: higher = stronger combined killing with drug
Active means: 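a knock-down is called essential if its DMSO robust z-score is under -3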
Meaning of the calls: active = essential (knock-down alone, z below -3); inactive = not essential
In all, the deposit lists 794 reagents; shown is an unselected part. 11 of them (1.4%) were called active. 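Calls flag knock-downs that lower viability without drug; drug synergy appears only in the synergy scores; exposure time not stated.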 No viability above 1 is reported: the scale is capped. The record does not give: the amount of reagent, the time to read-out.

| robust z-score, knock-down alone | viability, knock-down alone (fraction of control) | synergy score with trametinib | synergy score with cetuximab | synergy score with BYL719 | Outcome | Gene |
| --- | --- | --- | --- | --- | --- | --- |
| -1.09 | 0.737 | -0.0287 | -0.0757 | 0.0291 | inactive | AKAP9 |
| 0.213 | 0.927 | 0.143 | 0.106 | -0.0268 | inactive | MVK |
| 0.00759 | 0.897 | -0.16 | -0.0907 | -0.265 | inactive | ACVRL1 |
| 0.715 | 1 | -0.0436 | 0.107 | -0.108 | inactive | PRKACA |
| -0.838 | 0.774 | 0.259 | 0.065 | 0.071 | inactive | KSR1 |
| 0.149 | 0.918 | 0.173 | 0.0817 | -0.0413 | inactive | CERT1 |
| 0.715 | 1 | 0.251 | 0.146 | -0.04 | inactive | AK1 |
| -0.257 | 0.859 | 0.132 | 0.0345 | -0.0876 | inactive | MAPK10 |
| -0.148 | 0.875 | 0.182 | 0.118 | 0.049 | inactive | MAGI1 |
| -0.0727 | 0.886 | -0.0795 | 0.0321 | -0.0882 | inactive | RTN4 |
| 0.714 | 1 | 0.0921 | 0.0832 | 0.0331 | inactive | TTBK1 |
| 0.176 | 0.922 | 0.0338 | 0.0757 | -0.0186 | inactive | PRKCI |
| 0.47 | 0.965 | 0.215 | 0.0633 | -0.0201 | inactive | PKLR |
| 0.715 | 1 | -0.053 | 0.0342 | -0.239 | inactive | PRKCG |
| -0.789 | 0.782 | 0.137 | 0.0724 | 0.169 | inactive | VRK2 |
| 0.715 | 1 | -0.0744 | -0.109 | -0.118 | inactive | CDK5 |
| 0.292 | 0.939 | 0.252 | 0.0927 | -0.043 | inactive | CALM1 |
| 0.715 | 1 | -0.00325 | -0.0173 | -0.0771 | inactive | MAPK11 |
| 0.715 | 1 | 0.0605 | -0.21 | -0.276 | inactive | BRDT |
| -2.29 | 0.563 | 0.0712 | -0.000396 | -0.032 | inactive | BMAL1 |
| 0.715 | 1 | 0.0176 | -0.0575 | -0.252 | inactive | PFKL |
| 0.568 | 0.979 | 0.0638 | 0.0263 | -0.0561 | inactive | ADCK1 |
| 0.65 | 0.991 | -0.0798 | -0.0983 | -0.149 | inactive | TSSK3 |
| 0.715 | 1 | 0.103 | -0.00415 | -0.0836 | inactive | TBCK |
| 0.715 | 1 | 0.0992 | 0.0794 | 0.0508 | inactive | TSSK4 |
| -0.984 | 0.753 | -0.136 | -0.146 | -0.346 | inactive | GRK6 |
| 0.613 | 0.985 | -0.0823 | -0.223 | -0.339 | inactive | STYK1 |
| 0.715 | 1 | 0.00216 | 0.0571 | -0.298 | inactive | EIF2AK4 |
| 0.715 | 1 | 0.102 | 0.0664 | -0.202 | inactive | CDK3 |
| 0.715 | 1 | -0.0717 | -0.0758 | -0.176 | inactive | PSKH1 |
| 0.715 | 1 | 0.0108 | -0.0138 | -0.0978 | inactive | WNK1 |
| 0.263 | 0.934 | -0.0314 | -0.0438 | 0.119 | inactive | PIK3CB |
| 0.715 | 1 | 0.12 | -0.191 | -0.287 | inactive | MAP3K10 |
| -0.799 | 0.78 | 0.0253 | -0.00406 | -0.165 | inactive | NRBP2 |
| 0.715 | 1 | -0.00878 | -0.0122 | -0.127 | inactive | COQ8B |
| -1.13 | 0.732 | -0.0821 | -0.209 | -0.0334 | inactive | GALK1 |
| -0.0115 | 0.895 | -0.00205 | -0.087 | -0.205 | inactive | PIP5K1C |
| -0.247 | 0.86 | 0.148 | -0.00754 | -0.133 | inactive | CDK7 |
| 0.715 | 1 | -0.204 | -0.195 | -0.242 | inactive | ATRX |
| 0.715 | 1 | -0.0617 | -0.0659 | -0.14 | inactive | OXSR1 |
| -1.84 | 0.629 | 0.0573 | 0.07 | -0.0801 | inactive | PLK4 |
| 0.555 | 0.977 | 0.0836 | 0.116 | 0.0746 | inactive | SIK1 |
| 0.572 | 0.979 | -0.0763 | -0.0444 | -0.194 | inactive | PCBP1 |
| 0.48 | 0.966 | -0.0732 | -0.0323 | -0.151 | inactive | BUB1 |
| -1.95 | 0.613 | -0.0347 | -0.0737 | 0.0031 | inactive | CLSPN |
| 0.715 | 1 | -0.0245 | -0.0292 | -0.124 | inactive | STK32A |
| 0.715 | 1 | 0.0872 | -0.0354 | -0.0754 | inactive | IKBKE |
| -1.73 | 0.645 | 0.135 | 0.0722 | -0.194 | inactive | APC |
| 0.715 | 1 | 0.145 | -0.00602 | 0.0346 | inactive | PKIA |
| 0.715 | 1 | 0.0314 | -0.122 | -0.0713 | inactive | NRBP1 |
